Data from the supplement of paper PMC10849652.
Some of the results follow.

The chains behind the UniProt entries cited, without tags or fusion partners. Where a name states a change or a piece, a line headed by the entry shows the natural chain unless it says otherwise.
UniProt Q0JRZ9: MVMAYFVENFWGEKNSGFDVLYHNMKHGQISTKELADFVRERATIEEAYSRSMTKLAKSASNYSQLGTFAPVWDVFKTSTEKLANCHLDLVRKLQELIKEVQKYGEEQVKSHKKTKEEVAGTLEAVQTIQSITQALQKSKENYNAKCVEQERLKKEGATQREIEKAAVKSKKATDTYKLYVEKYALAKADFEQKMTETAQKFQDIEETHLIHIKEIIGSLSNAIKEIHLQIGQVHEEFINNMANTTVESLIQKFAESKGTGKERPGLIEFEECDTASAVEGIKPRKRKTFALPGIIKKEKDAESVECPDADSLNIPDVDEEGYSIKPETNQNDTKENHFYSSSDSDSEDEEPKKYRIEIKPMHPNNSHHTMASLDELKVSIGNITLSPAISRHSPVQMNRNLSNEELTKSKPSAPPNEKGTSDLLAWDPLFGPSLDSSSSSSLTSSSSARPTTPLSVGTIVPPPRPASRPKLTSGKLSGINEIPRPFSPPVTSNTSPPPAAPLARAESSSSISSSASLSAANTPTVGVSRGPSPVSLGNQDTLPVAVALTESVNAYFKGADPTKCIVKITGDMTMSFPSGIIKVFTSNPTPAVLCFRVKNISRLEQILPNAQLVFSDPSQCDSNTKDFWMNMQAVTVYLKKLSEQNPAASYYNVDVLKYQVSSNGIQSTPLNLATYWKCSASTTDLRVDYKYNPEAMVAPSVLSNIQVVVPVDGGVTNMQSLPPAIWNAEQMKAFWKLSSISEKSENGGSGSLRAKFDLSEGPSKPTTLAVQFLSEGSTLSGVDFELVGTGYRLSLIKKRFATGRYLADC
UniProt Q96CD0: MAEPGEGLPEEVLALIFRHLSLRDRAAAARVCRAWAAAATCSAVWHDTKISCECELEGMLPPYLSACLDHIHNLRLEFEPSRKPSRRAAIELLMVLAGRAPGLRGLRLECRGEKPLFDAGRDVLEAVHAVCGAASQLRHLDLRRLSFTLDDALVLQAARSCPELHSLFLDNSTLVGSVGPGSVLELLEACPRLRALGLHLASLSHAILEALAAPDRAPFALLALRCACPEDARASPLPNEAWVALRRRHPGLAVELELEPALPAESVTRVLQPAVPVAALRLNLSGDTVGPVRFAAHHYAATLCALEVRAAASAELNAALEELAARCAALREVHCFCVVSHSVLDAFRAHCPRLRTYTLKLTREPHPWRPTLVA
UniProt P10109: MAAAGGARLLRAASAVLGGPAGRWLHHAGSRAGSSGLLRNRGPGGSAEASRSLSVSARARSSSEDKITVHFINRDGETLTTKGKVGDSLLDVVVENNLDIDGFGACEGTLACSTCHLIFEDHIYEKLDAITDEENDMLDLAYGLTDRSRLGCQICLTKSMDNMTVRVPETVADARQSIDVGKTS
UniProt Q8NEZ5: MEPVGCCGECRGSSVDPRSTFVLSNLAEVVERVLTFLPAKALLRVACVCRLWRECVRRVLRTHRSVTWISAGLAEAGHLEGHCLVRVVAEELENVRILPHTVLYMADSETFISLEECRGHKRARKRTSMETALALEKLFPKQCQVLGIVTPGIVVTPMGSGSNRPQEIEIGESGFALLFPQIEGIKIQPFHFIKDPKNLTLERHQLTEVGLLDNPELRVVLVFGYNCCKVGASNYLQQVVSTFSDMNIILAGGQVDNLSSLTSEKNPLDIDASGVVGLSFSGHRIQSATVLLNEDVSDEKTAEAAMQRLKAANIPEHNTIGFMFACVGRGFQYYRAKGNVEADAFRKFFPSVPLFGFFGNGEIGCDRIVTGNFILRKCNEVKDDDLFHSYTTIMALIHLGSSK
UniProt Q9Y613: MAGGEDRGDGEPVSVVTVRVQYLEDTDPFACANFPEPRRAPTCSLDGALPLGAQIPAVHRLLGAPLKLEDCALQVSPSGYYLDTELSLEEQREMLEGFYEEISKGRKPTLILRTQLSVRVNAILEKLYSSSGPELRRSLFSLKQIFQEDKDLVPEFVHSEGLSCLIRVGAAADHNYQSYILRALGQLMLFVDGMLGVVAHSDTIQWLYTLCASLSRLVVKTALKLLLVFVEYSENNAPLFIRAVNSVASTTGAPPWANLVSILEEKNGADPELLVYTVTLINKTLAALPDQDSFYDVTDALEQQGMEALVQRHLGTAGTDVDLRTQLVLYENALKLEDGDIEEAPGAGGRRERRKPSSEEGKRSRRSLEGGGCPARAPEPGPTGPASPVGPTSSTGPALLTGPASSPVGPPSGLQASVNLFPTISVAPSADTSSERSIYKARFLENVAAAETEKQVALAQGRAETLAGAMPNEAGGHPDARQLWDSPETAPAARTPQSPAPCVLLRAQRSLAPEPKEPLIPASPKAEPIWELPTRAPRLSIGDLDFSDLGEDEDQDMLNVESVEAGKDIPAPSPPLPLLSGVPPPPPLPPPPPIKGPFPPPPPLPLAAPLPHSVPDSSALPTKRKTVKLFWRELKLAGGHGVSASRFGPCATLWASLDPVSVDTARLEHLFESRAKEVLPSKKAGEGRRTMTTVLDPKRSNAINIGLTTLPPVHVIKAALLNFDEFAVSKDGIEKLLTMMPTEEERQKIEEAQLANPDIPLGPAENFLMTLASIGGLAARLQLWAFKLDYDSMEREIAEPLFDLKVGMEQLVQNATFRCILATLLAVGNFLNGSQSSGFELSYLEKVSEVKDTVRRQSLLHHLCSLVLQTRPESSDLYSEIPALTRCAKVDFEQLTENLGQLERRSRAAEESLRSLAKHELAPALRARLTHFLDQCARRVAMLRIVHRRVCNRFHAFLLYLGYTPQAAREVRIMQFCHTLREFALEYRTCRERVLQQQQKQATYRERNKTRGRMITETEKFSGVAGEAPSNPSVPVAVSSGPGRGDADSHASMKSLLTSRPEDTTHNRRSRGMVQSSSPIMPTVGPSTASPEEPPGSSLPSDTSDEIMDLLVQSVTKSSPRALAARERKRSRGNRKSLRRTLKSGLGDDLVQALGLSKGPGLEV
UniProt Q9UBU6: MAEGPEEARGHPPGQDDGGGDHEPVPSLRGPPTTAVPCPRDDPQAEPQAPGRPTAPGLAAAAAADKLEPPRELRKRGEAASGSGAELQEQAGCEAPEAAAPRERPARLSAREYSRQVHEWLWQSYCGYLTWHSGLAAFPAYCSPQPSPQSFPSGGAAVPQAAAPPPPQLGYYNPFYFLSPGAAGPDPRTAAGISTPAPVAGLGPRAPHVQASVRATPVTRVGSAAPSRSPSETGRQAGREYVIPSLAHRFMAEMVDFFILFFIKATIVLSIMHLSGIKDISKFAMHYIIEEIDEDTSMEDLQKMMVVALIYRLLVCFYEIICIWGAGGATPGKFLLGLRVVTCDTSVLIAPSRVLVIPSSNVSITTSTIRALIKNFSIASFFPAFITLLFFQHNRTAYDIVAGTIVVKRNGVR
UniProt Q9BXW9: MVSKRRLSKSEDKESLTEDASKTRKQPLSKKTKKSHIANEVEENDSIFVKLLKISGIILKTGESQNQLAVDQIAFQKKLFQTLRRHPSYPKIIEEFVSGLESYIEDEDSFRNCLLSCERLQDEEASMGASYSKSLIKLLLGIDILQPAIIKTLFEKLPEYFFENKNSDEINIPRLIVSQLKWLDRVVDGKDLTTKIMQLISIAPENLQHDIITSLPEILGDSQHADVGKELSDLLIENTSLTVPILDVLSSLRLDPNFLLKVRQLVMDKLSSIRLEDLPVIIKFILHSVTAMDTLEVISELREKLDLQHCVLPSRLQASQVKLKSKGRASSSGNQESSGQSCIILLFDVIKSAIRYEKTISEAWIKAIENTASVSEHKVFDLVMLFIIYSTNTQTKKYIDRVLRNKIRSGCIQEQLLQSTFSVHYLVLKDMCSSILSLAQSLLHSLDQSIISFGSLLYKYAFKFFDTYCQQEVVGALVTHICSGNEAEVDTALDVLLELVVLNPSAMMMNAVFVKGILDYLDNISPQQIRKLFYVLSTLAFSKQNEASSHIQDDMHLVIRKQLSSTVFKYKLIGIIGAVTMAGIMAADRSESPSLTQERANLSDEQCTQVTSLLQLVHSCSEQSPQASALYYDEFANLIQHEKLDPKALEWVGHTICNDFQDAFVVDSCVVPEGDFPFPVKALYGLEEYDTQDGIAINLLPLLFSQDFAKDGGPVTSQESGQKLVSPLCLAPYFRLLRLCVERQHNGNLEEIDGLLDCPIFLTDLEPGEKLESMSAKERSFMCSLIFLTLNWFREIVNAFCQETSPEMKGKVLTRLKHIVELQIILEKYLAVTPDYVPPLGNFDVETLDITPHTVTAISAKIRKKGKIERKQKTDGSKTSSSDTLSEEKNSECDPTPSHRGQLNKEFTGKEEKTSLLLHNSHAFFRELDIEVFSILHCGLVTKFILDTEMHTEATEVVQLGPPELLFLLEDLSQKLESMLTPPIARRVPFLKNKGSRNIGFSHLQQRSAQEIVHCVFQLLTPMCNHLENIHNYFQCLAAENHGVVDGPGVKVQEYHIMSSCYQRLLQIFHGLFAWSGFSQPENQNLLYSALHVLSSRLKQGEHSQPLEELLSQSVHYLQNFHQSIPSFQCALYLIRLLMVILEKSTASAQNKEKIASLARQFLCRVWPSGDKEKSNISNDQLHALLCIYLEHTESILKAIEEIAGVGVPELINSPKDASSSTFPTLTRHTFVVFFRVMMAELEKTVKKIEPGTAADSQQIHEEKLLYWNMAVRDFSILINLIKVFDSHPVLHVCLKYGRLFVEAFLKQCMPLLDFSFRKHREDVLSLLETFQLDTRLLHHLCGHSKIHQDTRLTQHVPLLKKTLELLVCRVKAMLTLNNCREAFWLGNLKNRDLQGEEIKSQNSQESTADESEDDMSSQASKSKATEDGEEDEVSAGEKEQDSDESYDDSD
UniProt A6NHQ2: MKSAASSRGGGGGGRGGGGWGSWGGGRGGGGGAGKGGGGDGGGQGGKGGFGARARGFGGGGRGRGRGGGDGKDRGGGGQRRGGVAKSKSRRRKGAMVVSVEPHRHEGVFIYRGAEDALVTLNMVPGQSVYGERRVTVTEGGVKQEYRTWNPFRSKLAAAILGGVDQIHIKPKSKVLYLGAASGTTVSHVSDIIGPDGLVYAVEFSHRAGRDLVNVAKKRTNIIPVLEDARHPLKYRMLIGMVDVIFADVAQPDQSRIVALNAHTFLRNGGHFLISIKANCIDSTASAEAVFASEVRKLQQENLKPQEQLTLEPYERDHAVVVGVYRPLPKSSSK
UniProt Q9UKT5: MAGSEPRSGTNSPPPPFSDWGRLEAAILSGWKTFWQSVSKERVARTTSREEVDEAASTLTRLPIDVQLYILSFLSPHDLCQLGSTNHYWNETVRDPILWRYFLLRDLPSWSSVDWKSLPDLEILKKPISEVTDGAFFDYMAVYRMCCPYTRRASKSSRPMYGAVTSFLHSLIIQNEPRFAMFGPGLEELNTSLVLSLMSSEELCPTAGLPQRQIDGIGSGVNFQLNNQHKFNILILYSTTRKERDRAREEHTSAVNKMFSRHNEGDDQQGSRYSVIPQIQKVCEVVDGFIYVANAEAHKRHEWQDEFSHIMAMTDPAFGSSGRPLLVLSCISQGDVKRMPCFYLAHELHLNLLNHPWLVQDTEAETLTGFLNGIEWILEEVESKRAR

Columns and labels:
Assay in all cases: log2 fold change, soluble protein after heating vs DMSO (PISA); higher = thermal stabilisation; K562 lysate, 10 uM; active = over 0.2 and 3.5 SD of the protein, either way, in both replicates (recomputed)
[1] = compound: C1=CC=C(C=C1)[C@H](COC2=CC3=C(C=C2)NC(=O)N3)NC(=O)C4=CC=CN(C4=O)CC5=CC(=C(C=C5)F)F
Summary of the method: (§1)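 K562 pellets were dounce-homogenised in PBS pH 7.4 with 1 mM MgCl2, and the crude extract at 1 mg/mL protein was treated with 10 μM compound for 30 min. Aliquots were heated for 3 min across 48°C-58°C, pooled, and brought to 0.5% NP-40 at 4°C; soluble protein was the supernatant after 21,000xg for 90 min. Soluble protein was quantified by TMTpro 16plex LC-MS/MS with channel sums equalised, and reported as log2 fold change in thermal stability against DMSO controls, with values from duplicates.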

[2] = compound: CC1=C(SC2=C1C(=N[C@H](C3=NN=C(N32)C)CC(=O)N)C4=CC=C(C=C4)Cl)C
Summary of the method: as §1

[3] = compound: CC1=C2C(=CC=C1)N=C(N(C2=O)C3=CC=CC=C3C)CN4C=NC5=C(N=CN=C54)N
Summary of the method: as §1

[4] = compound: Cc1sc2c(c1C)C(c1ccc(Cl)cc1)=N[C@@H](CC(=O)OC(C)(C)C)c1nnc(C)n1-2
Summary of the method: as §1

[5] = compound: c1ccc([C@@H]2C[C@H]2NC2CCNCC2)cc1
Summary of the method: as §1

Measured: log2 fold change

FCHO2 (UniProt Q0JRZ9)
inactive: [1] 0.033 | [2] 0.011 | [3] -0.062 | [4] 0.028 | [5] 0.057

FBXL8 (UniProt Q96CD0)
inactive: [1] 0.176 | [2] -0.014 | [3] 0.051 | [4] -0.019 | [5] -0.001

FDX1 (UniProt P10109)
inactive: [1] 0.068 | [2] -0.027 | [3] 0.052 | [4] 0.117 | [5] -0.097

FBXO22 (UniProt Q8NEZ5)
inactive: [1] -0.007 | [2] -0.004 | [3] 0.03 | [4] 0.02 | [5] 0.083

FHOD1 (UniProt Q9Y613)
inactive: [1] -0.041 | [2] 0.006 | [3] 0.043 | [4] 0.029 | [5] 0.027

FAM8A1 (UniProt Q9UBU6)
inactive: [1] -0.073 | [2] -0.023 | [3] -0.012 | [4] -0.046 | [5] 0.087

FANCD2 isoform 1 (UniProt Q9BXW9)
inactive: [1] -0.002 | [2] 0.039 | [3] 0.012 | [4] -0.018 | [5] -0.054

FBLL1 (UniProt A6NHQ2)
inactive: [1] -0.017 | [2] 0.013 | [3] 0.037 | [4] -0.002 | [5] -0.062

FBXO4 (UniProt Q9UKT5)
inactive: [1] 0.022 | [2] -0.036 | [3] -0.001 | [4] -0.022 | [5] -0.004
